This note sets out measurements from publication PMC13239758.

Protein sequences, listed by entry. Tags and fused reporters are not part of them.
UniProt Q9ES74: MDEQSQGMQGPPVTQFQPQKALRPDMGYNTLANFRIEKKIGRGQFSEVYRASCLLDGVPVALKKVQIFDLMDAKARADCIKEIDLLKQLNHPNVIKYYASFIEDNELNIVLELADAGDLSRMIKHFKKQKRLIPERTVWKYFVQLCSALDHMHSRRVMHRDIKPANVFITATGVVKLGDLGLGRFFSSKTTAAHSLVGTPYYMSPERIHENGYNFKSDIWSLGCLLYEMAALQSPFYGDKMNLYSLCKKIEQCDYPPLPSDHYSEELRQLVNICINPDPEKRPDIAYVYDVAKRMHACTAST
UniProt Q9QVP9: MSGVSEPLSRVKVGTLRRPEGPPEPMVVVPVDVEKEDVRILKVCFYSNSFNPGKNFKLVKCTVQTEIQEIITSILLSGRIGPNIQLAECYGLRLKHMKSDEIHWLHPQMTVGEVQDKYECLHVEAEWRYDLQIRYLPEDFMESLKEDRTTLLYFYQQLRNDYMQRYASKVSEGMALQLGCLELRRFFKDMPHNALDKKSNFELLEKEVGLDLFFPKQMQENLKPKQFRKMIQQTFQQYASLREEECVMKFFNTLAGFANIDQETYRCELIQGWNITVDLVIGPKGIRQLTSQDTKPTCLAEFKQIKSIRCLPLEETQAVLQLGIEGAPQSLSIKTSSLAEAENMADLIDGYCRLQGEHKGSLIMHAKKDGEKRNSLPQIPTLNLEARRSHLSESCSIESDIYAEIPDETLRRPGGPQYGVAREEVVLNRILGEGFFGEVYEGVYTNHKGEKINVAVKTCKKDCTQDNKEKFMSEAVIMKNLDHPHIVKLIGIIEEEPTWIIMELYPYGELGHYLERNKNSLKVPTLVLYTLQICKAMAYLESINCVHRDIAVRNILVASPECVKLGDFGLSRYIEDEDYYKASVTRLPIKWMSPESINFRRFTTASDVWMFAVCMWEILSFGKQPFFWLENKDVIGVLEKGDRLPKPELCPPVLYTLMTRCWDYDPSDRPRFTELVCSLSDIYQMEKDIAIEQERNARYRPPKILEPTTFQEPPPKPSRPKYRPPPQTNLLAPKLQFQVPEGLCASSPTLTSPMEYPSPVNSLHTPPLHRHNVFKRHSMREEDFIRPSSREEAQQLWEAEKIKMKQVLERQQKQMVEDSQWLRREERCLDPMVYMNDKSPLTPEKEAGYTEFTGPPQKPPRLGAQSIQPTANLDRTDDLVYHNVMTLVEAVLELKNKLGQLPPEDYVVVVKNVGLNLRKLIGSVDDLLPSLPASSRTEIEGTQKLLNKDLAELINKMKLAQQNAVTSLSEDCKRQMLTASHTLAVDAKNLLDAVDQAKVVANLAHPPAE

Assay [1] has as its target NEK7 (endogenous, mouse BMMCs) (mouse (endogenous in BMMCs)), Q9ES74. In words: co-IP; endogenous proteins; IgE-sensitised WT (also Asc−/−) BMMCs untreated or stimulated with Ag (DNP-BSA 1 μg/ml) for 3-30 min; 1 mg pre-cleared lysate in IP lysis buffer, 1 μg antibody to CD63, NLRP3, ASC, NEK7 or Pyk2 overnight at 4 °C, G-plus agarose, immunoblot; some samples pretreated with BAPTA-AM, CAY-10736, oridonin or CY-09. The settings on record: remark: other sources report otherwise. (In general: Immunoblotting shows a protein as a band on a membrane.)

The next assay deals with T1, Myc-tagged ASC (UniProt Q9EPB4).
T1 sequence: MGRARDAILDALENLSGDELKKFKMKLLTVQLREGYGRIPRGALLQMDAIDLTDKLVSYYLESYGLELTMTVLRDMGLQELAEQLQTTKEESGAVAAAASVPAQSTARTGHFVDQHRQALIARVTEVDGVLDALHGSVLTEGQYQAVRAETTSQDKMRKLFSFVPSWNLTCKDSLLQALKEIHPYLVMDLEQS
As to the kind of experiment: co-IP; competitive co-IP in HEK293T: a constant pair co-expressed with varying amounts of a third plasmid (GFP-CD63 against Myc-ASC/Flag-caspase-1, IP with Flag antibody; 1 and 5 μg Flag-NLRP3 or Myc-ASC against a constant 5 μg of the GFP-CD63 truncate).

Assay [2] deals with T2, CD63 (endogenous, mouse BMMCs) (mouse (endogenous in BMMCs)) (UniProt P41731).
T2 sequence: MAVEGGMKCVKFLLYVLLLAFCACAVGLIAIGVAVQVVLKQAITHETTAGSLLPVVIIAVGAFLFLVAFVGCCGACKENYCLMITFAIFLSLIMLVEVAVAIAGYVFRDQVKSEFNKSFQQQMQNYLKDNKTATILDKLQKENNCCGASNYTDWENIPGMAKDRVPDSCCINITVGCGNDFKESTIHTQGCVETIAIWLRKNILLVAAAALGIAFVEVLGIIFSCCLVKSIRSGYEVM
In words: cross-linking; NP-40 lysate pellets of BMMCs (WT, Nlrp3−/−, Asc−/−; untreated, IgE–Ag 5 min or LPS/nigericin 15 min; some pretreated with CAY-10736 or oridonin) cross-linked with 2 mM disuccinimidyl suberate 30 min at room temperature; immunoblot for NLRP3, ASC, CD63.

The target in assay [3] is NEK7 (endogenous, mouse BMMCs) (mouse (endogenous in BMMCs)) (UniProt Q9ES74). In words: co-IP; endogenous proteins; IgE-sensitised WT (also Asc−/−) BMMCs untreated or stimulated with Ag (DNP-BSA 1 μg/ml) for 3-30 min; 1 mg pre-cleared lysate in IP lysis buffer, 1 μg antibody to CD63, NLRP3, ASC, NEK7 or Pyk2 overnight at 4 °C, G-plus agarose, immunoblot; some samples pretreated with BAPTA-AM, CAY-10736, oridonin or CY-09.

Assay [4] has as its target Pyk2 (endogenous, mouse BMMCs) (mouse (endogenous in BMMCs)) (UniProt Q9QVP9). Described as above.
The next assay concerns the target T3, GFP-CD63 full length (UniProt P41731).
T3 sequence: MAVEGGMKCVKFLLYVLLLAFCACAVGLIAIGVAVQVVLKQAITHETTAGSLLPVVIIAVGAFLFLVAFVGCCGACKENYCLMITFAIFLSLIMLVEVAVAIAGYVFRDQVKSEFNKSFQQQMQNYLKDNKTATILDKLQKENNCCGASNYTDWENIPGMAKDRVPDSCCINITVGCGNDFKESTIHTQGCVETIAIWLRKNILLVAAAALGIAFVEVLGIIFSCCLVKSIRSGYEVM
In words: co-IP; HEK293T cells co-transfected with GFP-CD63 (full length or truncates) and Flag- or Myc-tagged NLRP3 or ASC constructs; lysed after 36 h, IP with 1 μg Flag, GFP or Myc antibody, immunoblot.

In assay [5] the target is T2, CD63 (endogenous, mouse BMMCs) (mouse (endogenous in BMMCs)). In words: SEC; lysate of WT BMMCs stimulated with IgE–Ag for 5 min; Sephacryl 100 HR, 50 mM Tris-HCl pH 7.4, 150 mM NaCl, 1% octyl glucoside; fractions immunoblotted for NLRP3, ASC, caspase-1, CD63.
The target in assay [6] is Pyk2 (endogenous, mouse BMMCs) (mouse (endogenous in BMMCs)), Q9QVP9. In words: co-IP; endogenous proteins; IgE-sensitised WT (also Asc−/−) BMMCs untreated or stimulated with Ag (DNP-BSA 1 μg/ml) for 3-30 min; 1 mg pre-cleared lysate in IP lysis buffer, 1 μg antibody to CD63, NLRP3, ASC, NEK7 or Pyk2 overnight at 4 °C, G-plus agarose, immunoblot; some samples pretreated with BAPTA-AM, CAY-10736, oridonin or CY-09. The settings on record: remark: other sources report otherwise.

No constants are given. Whether binding was seen depends on the method and setting. For some assays here: Binding seen in cells or lysates may run through a third protein. Some binding calls cover weakened binding; strength is not graded here. For some assays here: Tags and fused reporters may be left off the sequences shown.

B1: ASC (endogenous, mouse BMMCs), Q9EPB4 1-193 (protein)
chain: MGRARDAILDALENLSGDELKKFKMKLLTVQLREGYGRIPRGALLQMDAIDLTDKLVSYYLESYGLELTMTVLRDMGLQELAEQLQTTKEESGAVAAAASVPAQSTARTGHFVDQHRQALIARVTEVDGVLDALHGSVLTEGQYQAVRAETTSQDKMRKLFSFVPSWNLTCKDSLLQALKEIHPYLVMDLEQS
Turning to B1, the binding entry in assay [1] is given as “no binding”.

B2: GFP-CD63 full length (protein, UniProt P41731 1-238)
chain: MAVEGGMKCVKFLLYVLLLAFCACAVGLIAIGVAVQVVLKQAITHETTAGSLLPVVIIAVGAFLFLVAFVGCCGACKENYCLMITFAIFLSLIMLVEVAVAIAGYVFRDQVKSEFNKSFQQQMQNYLKDNKTATILDKLQKENNCCGASNYTDWENIPGMAKDRVPDSCCINITVGCGNDFKESTIHTQGCVETIAIWLRKNILLVAAAALGIAFVEVLGIIFSCCLVKSIRSGYEVM
Turning to B2, the binding result with Myc-tagged ASC is on record as “binds”.

B3: CD63 (endogenous, mouse BMMCs) (protein, UniProt P41731 1-238)
chain: MAVEGGMKCVKFLLYVLLLAFCACAVGLIAIGVAVQVVLKQAITHETTAGSLLPVVIIAVGAFLFLVAFVGCCGACKENYCLMITFAIFLSLIMLVEVAVAIAGYVFRDQVKSEFNKSFQQQMQNYLKDNKTATILDKLQKENNCCGASNYTDWENIPGMAKDRVPDSCCINITVGCGNDFKESTIHTQGCVETIAIWLRKNILLVAAAALGIAFVEVLGIIFSCCLVKSIRSGYEVM
In the case of B3, the results for the binding result in assay [2], in assay [3] and in assay [4] were “binds”, “no binding” and “no binding”, respectively.

B4: Flag–CARD (CARD domain of ASC) (domain or fragment, UniProt Q9EPB4 105-193)
chain: STARTGHFVDQHRQALIARVTEVDGVLDALHGSVLTEGQYQAVRAETTSQDKMRKLFSFVPSWNLTCKDSLLQALKEIHPYLVMDLEQS
On to B4, for which, in the assay with GFP-CD63 full length, the binding entry is listed as “binds”.

B5: caspase-1 (endogenous, mouse BMMCs) (protein, UniProt P29452 1-402)
chain: MADKILRAKRKQFINSVSIGTINGLLDELLEKRVLNQEEMDKIKLANITAMDKARDLCDHVSKKGPQASQIFITYICNEDCYLAGILELQSAPSAETFVATEDSKGGHPSSSETKEEQNKEDGTFPGLTGTLKFCPLEKAQKLWKENPSEIYPIMNTTTRTRLALIICNTEFQHLSPRVGAQVDLREMKLLLEDLGYTVKVKENLTALEMVKEVKEFAACPEHKTSDSTFLVFMSHGIQEGICGTTYSNEVSDILKVDTIFQMMNTLKCPSLKDKPKVIIIQACRGEKQGVVLLKDSVRDSEEDFLTDAIFEDDGIKKAHIEKDFIAFCSSTPDNVSWRHPVRGSLFIESLIKHMKEYAWSCDLEDIFRKVRFSFEQPEFRLQMPTADRVTLTKRFYLFPGH
Regarding B5, in assay [5], the binding entry is given as “no binding”.

B6: NLRP3 (endogenous, mouse BMMCs), Q8R4B8 1-1033 (protein)
chain: MTSVRCKLAQYLEDLEDVDLKKFKMHLEDYPPEKGCIPVPRGQMEKADHLDLATLMIDFNGEEKAWAMAVWIFAAINRRDLWEKAKKDQPEWNDTCTSHSSMVCQEDSLEEEWMGLLGYLSRISICKKKKDYCKMYRRHVRSRFYSIKDRNARLGESVDLNSRYTQLQLVKEHPSKQEREHELLTIGRTKMRDSPMSSLKLELLFEPEDGHSEPVHTVVFQGAAGIGKTILARKIMLDWALGKLFKDKFDYLFFIHCREVSLRTPRSLADLIVSCWPDPNPPVCKILRKPSRILFLMDGFDELQGAFDEHIGEVCTDWQKAVRGDILLSSLIRKKLLPKASLLITTRPVALEKLQHLLDHPRHVEILGFSEAKRKEYFFKYFSNELQAREAFRLIQENEVLFTMCFIPLVCWIVCTGLKQQMETGKSLAQTSKTTTAVYVFFLSSLLQSRGGIEEHLFSDYLQGLCSLAADGIWNQKILFEECDLRKHGLQKTDVSAFLRMNVFQKEVDCERFYSFSHMTFQEFFAAMYYLLEEEAEGETVRKGPGGCSDLLNRDVKVLLENYGKFEKGYLIFVVRFLFGLVNQERTSYLEKKLSCKISQQVRLELLKWIEVKAKAKKLQWQPSQLELFYCLYEMQEEDFVQSAMDHFPKIEINLSTRMDHVVSSFCIKNCHRVKTLSLGFFHNSPKEEEEERRGGRPLDQVQCVFPDTHVACSSRLVNCCLTSSFCRGLFSSLSTNRSLTELDLSDNTLGDPGMRVLCEALQHPGCNIQRLWLGRCGLSHQCCFDISSVLSSSQKLVELDLSDNALGDFGIRLLCVGLKHLLCNLQKLWLVSCCLTSACCQDLALVLSSNHSLTRLYIGENALGDSGVQVLCEKMKDPQCNLQKLGLVNSGLTSICCSALTSVLKTNQNFTHLYLRSNALGDTGLRLLCEGLLHPDCKLQMLELDNCSLTSHSCWNLSTILTHNHSLRKLNLGNNDLGDLCVVTLCEVLKQQGCLLQSLQLGEMYLNRETKRALEALQEEKPELTIVFEISW
With B6, the binding entry in assay [6] is given as “no binding”.
